## Library screen at single concentrations

Protein sequences, listed by entry. Tags and fused reporters are not part of them. Residues count along the entry.
UniProt Q8IDJ8, 1-583: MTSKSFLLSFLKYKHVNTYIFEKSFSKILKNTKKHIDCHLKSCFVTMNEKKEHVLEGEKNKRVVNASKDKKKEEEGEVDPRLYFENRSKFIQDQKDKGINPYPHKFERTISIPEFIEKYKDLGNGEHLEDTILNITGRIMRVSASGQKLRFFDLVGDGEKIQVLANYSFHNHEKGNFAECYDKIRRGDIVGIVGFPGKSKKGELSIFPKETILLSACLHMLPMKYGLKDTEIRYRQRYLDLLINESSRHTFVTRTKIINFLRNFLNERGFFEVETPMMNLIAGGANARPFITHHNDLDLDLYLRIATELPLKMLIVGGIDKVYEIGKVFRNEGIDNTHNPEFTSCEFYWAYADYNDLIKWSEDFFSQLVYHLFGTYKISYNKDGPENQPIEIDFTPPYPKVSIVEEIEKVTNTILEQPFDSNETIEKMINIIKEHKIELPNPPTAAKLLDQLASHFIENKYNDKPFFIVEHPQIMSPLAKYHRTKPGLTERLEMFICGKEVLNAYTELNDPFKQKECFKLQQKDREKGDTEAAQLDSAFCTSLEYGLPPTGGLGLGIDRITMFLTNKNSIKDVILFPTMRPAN
UniProt P9WPC5, whole entry: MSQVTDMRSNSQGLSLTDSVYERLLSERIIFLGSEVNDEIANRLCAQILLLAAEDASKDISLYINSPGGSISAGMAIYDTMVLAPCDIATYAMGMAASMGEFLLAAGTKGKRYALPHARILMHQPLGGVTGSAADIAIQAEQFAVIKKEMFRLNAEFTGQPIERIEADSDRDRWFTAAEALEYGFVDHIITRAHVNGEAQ
UniProt P9WPC3, whole entry partner: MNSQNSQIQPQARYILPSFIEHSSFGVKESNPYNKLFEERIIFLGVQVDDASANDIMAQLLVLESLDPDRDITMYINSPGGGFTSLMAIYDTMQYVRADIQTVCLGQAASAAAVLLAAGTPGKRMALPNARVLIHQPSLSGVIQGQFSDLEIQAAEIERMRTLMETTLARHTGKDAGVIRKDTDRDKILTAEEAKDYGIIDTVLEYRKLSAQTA

A: 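Lysine-tRNA ligase, Plasmodium falciparum 3D7 (UniProt Q8IDJ8). Enzyme assay of the cytosolic lysyl-tRNA synthetase in 384-well plates, read by luminescence. Concentration: 30 µM. Higher reads as stronger inhibition, judged from the few compounds that gave an IC50. Of about 69,000 compounds tested this way, about 49 (0.071%) reached 50% or more in at least one test.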
B: 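Protease assay of ClpP1P2, read by the AMC dye that it sets free. Target: ClpP1P2, Mycobacterium tuberculosis (UniProt P9WPC5 and UniProt P9WPC3). Tested at 50 µM. Higher reads as stronger inhibition, judged from the few compounds that gave an IC50. Most other retested compounds had strongly negative values. Of about 69,000 compounds tested this way, about 10 (0.015%) reached 50% or more in at least one test.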

Results are given as percent effect.
The controls that fix the scale are not given in the record; negative values are as filed.
This is an unselected part of the compounds tested.

structure	A	B
COc1ccc(C2=CCN(C(=O)CN(C)Cc3ccco3)CC2)cc1	2.118%	-17.02%
COCCN(Cc1ccco1)c1ncc(C#N)cc1Cl	1.895%	-17.11%
CN(C)C1CN(C(=O)Nc2cccc(OC(F)F)c2)C1	0.9685%	1.346%
CCc1ocnc1C(=O)N1CCC(n2cc(-c3ccsc3)nn2)CC1	0.0245%	-3.073%
O=C(O)c1ccnc(-c2ccnc(NCCc3nc4c(s3)CCC4)n2)c1	3.4%	-1.983%
O=C(COc1coc(CN2CCCCCC2)cc1=O)c1ccccc1	-7.301%	6.575%
O=C(NCCc1ccc(I)s1)N1CCC1	-0.5987%	-13.91%
Cn1nccc1C(=O)N1CCC(n2cc(-c3ccsc3)nn2)CC1	4.704%	-13.7%
CC(=O)N[C@@H](CC(C)C)C(=O)N1CCC(n2cc(CC(C)C)nn2)CC1	-2.319%	14.64%
CC1(C)CNC(=O)c2nc(C3CCCN(S(C)(=O)=O)C3)[nH]c2C1 (stereo not drawn)	3.422%	-6.114%
Cn1ccnc1C1CCN(S(=O)(=O)c2ccc3oc(=O)[nH]c3c2)CC1	1.47%	-7.588%
CN(C)Cc1nn(C)c2c1CCN(C(=O)c1cccnc1)C2	-0.5957%	12.77%
CC(=O)N(Cc1ncc(C)o1)C1CCN(Cc2sc(C)nc2C)C1 (stereo not drawn)	-1.233%	-46.27%
Cc1cc(F)ccc1N1CCCC(Nc2nccn3cnnc23)C1=O (stereo not drawn)	-3.235%	-6.199%
CNC(=O)c1cn[nH]c1C1CCN(Cc2cccc(C)c2OC)C1 (stereo not drawn)	1.048%	0.3261%
O=C(CN1CCCS1(=O)=O)Nc1ccc(OC(F)F)cc1	4.566%	3.722%
CCc1nnc2n1CCN(C(C(=O)NC1CC1)c1ccccc1)C2 (stereo not drawn)	0.6626%	-15.84%
Cc1n[nH]c(C2CN(C(=O)c3ccc4c(c3)CCCC4)CCO2)n1 (stereo not drawn)	-2.727%	-17.25%
CC(CN1CCOCC1)NCC1CCN(c2cnn(C)c(=O)c2)CC1 (stereo not drawn)	-0.08208%	-7.146%
CNC(=O)[C@@H](c1ccccc1)N1CCC[C@H]1C(=O)NC1CCCCC1	3.217%	-12.31%
COC(=O)[C@H](CSC)Nc1nc(C2CCCC2)nc2c1cnn2C	2.09%	-3.186%
CC1=N[C@@]2(CC[C@@H]3CN(Cc4ccccc4F)C[C@@H]32)C(=O)N1CC1CC1	5.985%	-1.607%
CCOc1cc(CN(C)CC(=O)O)ccc1OC(F)F	-1.628%	-3.221%
O=C([C@H]1CCS(=O)(=O)[C@@H]2CN(Cc3ccc(F)cc3)C[C@H]12)N1CCCC1	7.119%	-2.974%
CCc1[nH]c2c(CNc3cnccn3)cc(F)cc2c1C	-1.729%	-3.181%
CCc1cc(N(C)CCC(O)c2ccccc2)n2nccc2n1 (stereo not drawn)	-11.45%	13%
Cc1nc(C2CCN(C(=O)COC(C)C)CC2)cc(N2CCOCC2)n1	14.26%	8.004%
CC(C)c1n[nH]c(C2CN(CC(=O)N(C)Cc3ccco3)CCO2)n1 (stereo not drawn)	2.016%	-0.8172%
Cc1cc2c(=O)n3c(nc2s1)CCN(Cc1cnn(C)c1C)CC3	0.8956%	-3.139%
NC(=O)CCN(C(=O)c1cccc2c1OCO2)c1ccccc1	1.86%	-6.736%
CCCNC(=O)c1cc2c([nH]c1=O)CC(c1cccs1)CC2=O (stereo not drawn)	4.583%	5.202%
CCOCC(O)CN1CCN(C(=O)c2ccnc(N(C)C)c2)CC1 (stereo not drawn)	-0.2544%	-10.02%
CCCN1CCN(C(=O)Cn2nc(C(F)(F)F)c(Br)c2C2CC2)CC1	-1.762%	-13.51%
COCc1cccc(NC(C)C(=O)N(C)Cc2cccc(F)c2)c1 (stereo not drawn)	1.523%	-4.207%
O=C(NCCn1ccnc1)c1cccc(F)c1	6.463%	14.28%
CN(C)c1ccc2c(c1)CN(C(=O)c1c[nH]cn1)C2c1cnco1 (stereo not drawn)	1.999%	5.995%
c1ccc2sc(N3CCOC(Cn4cccn4)C3)nc2c1 (stereo not drawn)	-1.325%	-1.93%
Cc1ccccc1CN(C)CC(O)COCc1ccccc1Cl (stereo not drawn)	-4.002%	5.504%
CN(Cc1ccsc1)C(=O)Nc1cccc(N2CCOC2=O)c1	-2.76%	5.757%
Cc1cc(CN2CC[C@H]3[C@H]2CCN3S(C)(=O)=O)oc1C	4.543%	-1.891%
c1cc(-c2cnc(NC3CC3)nc2[C@H]2CCCO2)ccn1	1.602%	7.511%
Cc1ccnc(C2(C)CCCN2S(=O)(=O)c2cccnc2)n1 (stereo not drawn)	0.4811%	3.487%
Cc1noc(C)c1S(=O)(=O)N1CCC(n2cccn2)CC1	3.668%	6.271%
Cc1cnc(C)c(N2CCN(CC3CCCO3)CC2)n1 (stereo not drawn)	0.9057%	-14.74%
CN1CCOC(CNCCOc2ccc(C#N)cc2)C1 (stereo not drawn)	1.708%	1.027%

The last 4 entries again:

Cc1ccnc(C2(C)CCCN2S(=O)(=O)c2cccnc2)n1 (stereo not drawn) read A: 0.4811%; B: 3.487%.
Cc1noc(C)c1S(=O)(=O)N1CCC(n2cccn2)CC1 read A: 3.668%; B: 6.271%.
Cc1cnc(C)c(N2CCN(CC3CCCO3)CC2)n1 (stereo not drawn) read A: 0.9057%; B: -14.74%.
CN1CCOC(CNCCOc2ccc(C#N)cc2)C1 (stereo not drawn) read A: 1.708%; B: 1.027%.

Data taken from ChEMBL document CHEMBL3988442, “University of Dundee, Small-Polar-MMV Screening Library” (2021).